Experimental data from PubChem BioAssay AID328 (DTP/NCI, 2004).
The list is a part of this screen's results and no random one: it gathers tests that were run many times, whatever their T/C, doses with no T/C, and many T/C values between a quarter and a half above the control. Further doses and runs are listed elsewhere. T/C is the treated group as % of the vehicle group. Some entries give survivors of the animals treated and no T/C: the source holds a T/C of zero for them, seemingly a mark for toxic or unscored doses. Some doses without a T/C left all or most animals alive at the check, yet need not have been tolerated: the source hardly ever lists a survival T/C far under the control, and the zero likely stands for such cases as well. Survivors were counted at the toxicity check, usually on the fifth day, unless a day is given; later deaths do not show. Schedule codes are those of the source, taken here to give the interval after Q, in days (D) or hours (H), and the number of doses after X. Some doses were run more than once; the results are listed from low to high. For survival time, the PubChem record calls one and a half times the control and up active, and a quarter to a half above the control has no call in these data; cut-offs in other NCI protocols can differ. Some T/C values are followed by the survivors on the day toxicity was checked, most often the fifth; where none is given, no animal had died by that day.

System: BDF1 mice, P388 leukemia ip, median survival T/C
Experiment: NCI In Vivo Anticancer Drug Screen. Data for tumor model P388 Leukemia (intraperitoneal) in B6D2F1 (BDF1) mice
Conditions: T/C endpoint: median survival time, higher T/C = longer survival
In short: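 Each value expresses how treatment altered survival: treated-mouse outcome over vehicle-mouse outcome, both groups bearing the transplanted tumour.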

[1] = dose: 400.0 mg/kg/injection, schedule: Q04DX003 (ip), vehicle: saline with Tween-80
[2] = dose: 6.25 mg/kg/injection, schedule: Q04DX003 (ip), vehicle: saline with Tween-80
[3] = dose: 12.5 mg/kg/injection, schedule: Q04DX003 (ip), vehicle: saline with Tween-80
[4] = dose: 25.0 mg/kg/injection, schedule: Q01DX009 (ip), vehicle: saline with Tween-80
[5] = dose: 100.0 mg/kg/injection, schedule: Q01DX009 (ip), vehicle: saline with Tween-80
[6] = dose: 200.0 mg/kg/injection, schedule: Q01DX009 (ip), vehicle: saline with Tween-80

## CC[C@](O)(C(=O)O)c1cc2n(c(=O)c1CO)Cc1cc3ccccc3nc1-2
dose: 0.5 mg/kg/injection, schedule: Q01DX009 (ip), vehicle: saline
  T/C: 127 % of control
dose: 1.0 mg/kg/injection, schedule: Q01DX009 (ip), vehicle: saline
  T/C: 132 % of control
dose: 4.0 mg/kg/injection, schedule: Q01DX009 (ip), vehicle: water
  survivor count: 10 of 10
dose: 6.25 mg/kg/injection, schedule: Q04DX002 (ip), vehicle: saline
  T/C: 146 % of control
dose: 8.0 mg/kg/injection, schedule: Q01DX009 (ip), vehicle: water
  survivor count: 10 of 10
dose: 15.0 mg/kg/injection, schedule: Q04DX003 (ip), vehicle: saline
  T/C: 136 % of control
dose: 19.0 mg/kg/injection, schedule: Q01DX001 (ip), vehicle: saline, evaluated on day 5
  T/C: 142 % of control
dose: 19.0 mg/kg/injection, schedule: Q01DX001 (ip), vehicle: saline, evaluated on day 60
  T/C: 142 % of control
dose: 20.0 mg/kg/injection, schedule: Q04DX003 (ip), vehicle: water
  T/C: 125 % of control
dose: 22.0 mg/kg/injection, schedule: Q04DX003 (ip), vehicle: saline
  T/C: 145 % of control
dose: 38.0 mg/kg/injection, schedule: Q01DX001 (ip), vehicle: saline, evaluated on day 5
  T/C: 149 % of control
dose: 38.0 mg/kg/injection, schedule: Q01DX001 (ip), vehicle: saline, evaluated on day 60
  T/C: 149 % of control
dose: 50.0 mg/kg/injection, schedule: Q04DX003 (ip), vehicle: saline
  survivor count: 6 of 8
dose: 50.0 mg/kg/injection, schedule: Q04DX009 (ip), vehicle: saline
  survivor count: 3 of 3
dose: 75.0 mg/kg/injection, schedule: Q01DX001 (ip), vehicle: saline
  survivor count: 5 of 9
dose: 80.0 mg/kg/injection, schedule: Q04DX003 (ip), vehicle: water
  survivor count: 10 of 10
dose: 83.3 mg/kg/injection, schedule: Q04DX003 (ip), vehicle: saline
  survivor count: 6 of 8
dose: 125.0 mg/kg/injection, schedule: Q01DX001 (ip), vehicle: saline
  T/C: 127 % of control [8 of 10 alive]
dose: 150.0 mg/kg/injection, schedule: Q01DX001 (ip), vehicle: saline
  survivor count: 2 of 9 and 8 of 10
dose: 160.0 mg/kg/injection, schedule: Q04DX003 (ip), vehicle: water
  survivor count: 10 of 10
dose: 200.0 mg/kg/injection, schedule: Q01DX001 (ip), vehicle: saline
  survivor count: 3 of 10

## O=C1C=C(Nc2ccc(O)cc2)c2ccccc2C1=O
dose: 35.0 mg/kg/injection, schedule: Q01DX009 (ip), vehicle: saline with Tween-80
  T/C: 127 % of control
dose: 55.0 mg/kg/injection, schedule: Q01DX009 (ip), vehicle: saline with Tween-80
  survivor count: 6 of 6
dose: 80.0 mg/kg/injection, schedule: Q01DX009 (ip), vehicle: saline with Tween-80
  survivor count: 4 of 6

## O=Nc1ccc2ccccc2c1O
dose: 200.0 mg/kg/injection, schedule: Q01DX001 (ip), vehicle: Klucel (hydroxypropylcellulose) (HPC)
  survivor count: 0 of 6

## CCCN=C(N)c1ccc(NC(=O)c2ccc(C(=O)Nc3ccc(C(N)=NCCC)cc3)cc2)cc1
dose: 2.0 mg/kg/injection, schedule: Q04DX003 (ip), vehicle: saline with Tween-80
  T/C: 135 % of control
dose: 75.0 mg/kg/injection, schedule: Q04DX003 (ip), vehicle: saline with Tween-80
  T/C: 140 % of control
[1]
  survivor count: 5 of 6

## CN(C)C(=S)NN
dose: 2.0 mg/kg/injection, schedule: Q01DX009 (ip), vehicle: saline with Tween-80
  survivor count: 6 of 6
[2]
  survivor count: 6 of 6
[3]
  survivor count: 0 of 6

## NC(CO)Cc1ccccc1 (centres undefined)
dose: 50.0 mg/kg/injection, schedule: Q01DX009 (ip), vehicle: Klucel (hydroxypropylcellulose) (HPC)
  survivor count: 0 of 6

## COC1CC(C)C(OC)C2=CC(=O)C=C(NC(=O)/C(C)=C/C=C\C(C)C(OC(N)=O)/C(C)=C\C(C)C1OC)C2=O (centres undefined)
dose: 2.5 mg/kg/injection, schedule: Q01DX009 (ip), vehicle: saline + alcohol
  T/C: 140 % of control
dose: 20.0 mg/kg/injection, schedule: Q01DX009 (ip), vehicle: saline + alcohol
  survivor count: 4 of 6

## CCOC(=O)c1cnn(-c2ccccc2)c1N
dose: 6.25 mg/kg/injection, schedule: Q01DX009 (ip), vehicle: saline
  survivor count: 0 of 6
dose: 12.5 mg/kg/injection, schedule: Q01DX009 (ip), vehicle: saline
  survivor count: 6 of 6
dose: 25.0 mg/kg/injection, schedule: Q01DX009 (ip), vehicle: saline
  survivor count: 5 of 6
dose: 400.0 mg/kg/injection, schedule: Q01DX009 (ip), vehicle: saline
  survivor count: 1 of 6

## Cc1cc2nc(CBr)c(CBr)nc2cc1C
dose: 9.2 mg/kg/injection, schedule: Q01DX009 (ip), vehicle: saline
  survivor count: 4 of 6
dose: 14.0 mg/kg/injection, schedule: Q01DX009 (ip), vehicle: saline
  survivor count: 0 of 6
dose: 21.0 mg/kg/injection, schedule: Q01DX009 (ip), vehicle: saline
  survivor count: 0 of 6
dose: 28.0 mg/kg/injection, schedule: Q04DX003 (ip), vehicle: saline
  survivor count: 1 of 6
dose: 40.0 mg/kg/injection, schedule: Q04DX003 (ip), vehicle: saline
  survivor count: 3 of 6

## COC1CC(C)(O)C(OC2CCC(OC(=O)C(C)C(O)c3ccc4c(c3)C(=O)C=C(C)C4=O)C(C)O2)C(C)O1 (centres undefined)
dose: 5.0 mg/kg/injection, schedule: Q01DX009 (ip), vehicle: saline
  T/C: 127 % of control

## Cc1ccc(C)c2c1CCCC2=O
[4]
  survivor count: 6 of 6

## CC(=O)C(C(C)=O)c1ccccc1.CC(=O)C(C(C)=O)c1ccccc1.[Ni]
dose: 25.0 mg/kg/injection, schedule: Q01DX009 (ip), vehicle: Klucel (hydroxypropylcellulose) (HPC)
  survivor count: 6 of 6

## CS(=O)(=O)OCCN(CCOS(C)(=O)=O)c1ccc(/C=N/Nc2ncnc3nc[nH]c23)cc1
[2]
  T/C: 140 % of control
[3]
  T/C: 135 % of control [5 of 6 alive]
dose: 66.0 mg/kg/injection, schedule: Q01DX009 (ip), vehicle: saline with Tween-80
  survivor count: 5 of 6
[5]
  survivor count: 3 of 6
dose: 150.0 mg/kg/injection, schedule: Q01DX009 (ip), vehicle: saline with Tween-80
  survivor count: 2 of 6
[1]
  survivor count: 3 of 6

## CC1CCCC(NC(=O)N(CCCl)N=O)C1 (centres undefined)
dose: 200.0 mg/kg/injection, schedule: Q04DX003 (ip), vehicle: saline with Tween-80
  survivor count: 5 of 6
[1]
  survivor count: 2 of 6

## Clc1nc(Cl)nc(-c2cccn2-c2ccccc2)n1
dose: 335.0 mg/kg/injection, schedule: Q01DX009 (ip), vehicle: Klucel (hydroxypropylcellulose) (HPC)
  survivor count: 0 of 6

## S=C(NC12CC3CC(CC(C3)C1)C2)[NH][Sn]([c]1ccccc1)([c]1ccccc1)[c]1ccccc1
dose: 50.0 mg/kg/injection, schedule: Q01DX009 (ip), vehicle: saline with Tween-80
  survivor count: 0 of 6
[5]
  survivor count: 0 of 6
[6]
  survivor count: 0 of 6

## CC(=O)Nc1ccc(/C=N/Nc2ccc([N+](=O)[O-])cn2)cc1
dose: 31.3 mg/kg/injection, schedule: Q01DX010 (ip), vehicle: saline
  survivor count: 6 of 6

## Nc1ncc(CNc2ccc(C(=O)NC(CCC(=O)O)C(=O)O)cc2)c(N)n1 (centres undefined)
dose: 200.0 mg/kg/injection, schedule: Q01DX009 (ip), vehicle: Klucel (hydroxypropylcellulose) (HPC)
  T/C: 134 % of control
dose: 400.0 mg/kg/injection, schedule: Q01DX009 (ip), vehicle: Klucel (hydroxypropylcellulose) (HPC)
  survivor count: 6 of 6

## CN=C(NC#N)NCCSCc1nc[nH]c1C
dose: 12.5 mg/kg/injection, schedule: Q01DX005 (ip), vehicle: Klucel (hydroxypropylcellulose) (HPC)
  T/C: 129 % of control
dose: 50.0 mg/kg/injection, schedule: Q01DX005 (ip), vehicle: Klucel (hydroxypropylcellulose) (HPC)
  T/C: 125 % of control

## CC1(c2ccc(Cl)s2)C(=O)N(Cl)C(=O)N1Cl (centres undefined)
[4]
  T/C: 125 % of control
[5]
  T/C: 140 % of control [5 of 6 alive]
[6]
  survivor count: 2 of 6 and 4 of 6
dose: 200.0 mg/kg/injection, schedule: Q04DX003 (ip), vehicle: water
  survivor count: 6 of 6

## O=Cc1[nH]c(=S)[nH]c(=O)c1Cc1cccc(Cl)c1
[6]
  T/C: 134 % of control
dose: 400.0 mg/kg/injection, schedule: Q01DX009 (ip), vehicle: saline with Tween-80
  T/C: 138 % of control
